In article doi:10.1101/2025.09.26.678755 one finds binding data, which are given here for 1 substance.

Protein sequences, listed by entry. Tags and fused reporters are not part of them.
UniProt P46934: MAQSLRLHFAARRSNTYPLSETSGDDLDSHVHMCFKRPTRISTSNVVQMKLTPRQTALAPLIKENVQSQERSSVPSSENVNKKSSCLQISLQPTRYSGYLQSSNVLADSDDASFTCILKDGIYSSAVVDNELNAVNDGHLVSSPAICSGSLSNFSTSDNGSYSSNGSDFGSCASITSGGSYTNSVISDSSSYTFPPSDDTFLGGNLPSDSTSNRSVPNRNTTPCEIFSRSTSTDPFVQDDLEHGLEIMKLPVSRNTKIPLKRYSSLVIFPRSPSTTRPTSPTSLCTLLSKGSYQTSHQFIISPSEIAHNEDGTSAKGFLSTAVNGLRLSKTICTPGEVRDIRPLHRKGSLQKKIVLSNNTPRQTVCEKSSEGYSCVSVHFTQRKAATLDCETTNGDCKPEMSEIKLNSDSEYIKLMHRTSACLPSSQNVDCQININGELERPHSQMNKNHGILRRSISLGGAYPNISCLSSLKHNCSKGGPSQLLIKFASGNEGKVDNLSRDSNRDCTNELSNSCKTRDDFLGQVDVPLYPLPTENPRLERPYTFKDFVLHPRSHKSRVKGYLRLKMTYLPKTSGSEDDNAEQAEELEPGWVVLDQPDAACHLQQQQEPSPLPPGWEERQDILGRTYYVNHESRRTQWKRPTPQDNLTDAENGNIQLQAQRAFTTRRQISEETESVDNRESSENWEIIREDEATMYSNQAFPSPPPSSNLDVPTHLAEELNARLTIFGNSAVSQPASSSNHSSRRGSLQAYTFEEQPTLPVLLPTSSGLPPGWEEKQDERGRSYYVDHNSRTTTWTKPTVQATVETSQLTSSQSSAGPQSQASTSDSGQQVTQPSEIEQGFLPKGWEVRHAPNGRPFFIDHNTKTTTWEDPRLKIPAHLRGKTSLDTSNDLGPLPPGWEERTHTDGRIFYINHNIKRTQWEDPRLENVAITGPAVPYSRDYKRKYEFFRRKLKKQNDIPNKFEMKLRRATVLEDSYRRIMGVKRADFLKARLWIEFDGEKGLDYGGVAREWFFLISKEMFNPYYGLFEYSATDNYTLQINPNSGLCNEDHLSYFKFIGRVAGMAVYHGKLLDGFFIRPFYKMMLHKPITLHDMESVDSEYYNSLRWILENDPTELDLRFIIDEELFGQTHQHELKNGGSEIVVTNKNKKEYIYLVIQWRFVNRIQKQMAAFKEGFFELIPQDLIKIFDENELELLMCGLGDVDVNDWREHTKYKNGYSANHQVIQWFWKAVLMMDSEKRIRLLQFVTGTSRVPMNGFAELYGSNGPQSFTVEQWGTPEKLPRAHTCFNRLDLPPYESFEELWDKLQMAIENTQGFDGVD
UniProt O14933: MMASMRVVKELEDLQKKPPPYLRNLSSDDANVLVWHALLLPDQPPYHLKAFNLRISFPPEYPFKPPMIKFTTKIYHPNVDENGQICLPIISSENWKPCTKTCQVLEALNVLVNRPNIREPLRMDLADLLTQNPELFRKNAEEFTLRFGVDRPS

For the assay, the target named is NEDD4 (human) (UniProt P46934). Description: ITC. On the technique in general: Isothermal titration calorimetry measures the heat released or taken up as one component is titrated into another.

No constants are given. Whether binding was seen depends on the method and setting. Some results given as binding are weak or reduced against the parent protein; the word gives no strength.

Turning to “UbcH8 (from UniProt O14933 1-153) (enzyme)”, the binding result is recorded as “binds”.
